Results are given in words; binding and its absence hold for the method and conditions named. For some assays here: Binding seen in cells or lysates may run through a third protein. Some results given as binding are weak or reduced against the parent protein; the word gives no strength. Where a sequence is shown, tags or fusion partners need not be part of it.
T1: ROS1 in the BD vector (Arabidopsis thaliana), Q9SJQ6
T1 chain: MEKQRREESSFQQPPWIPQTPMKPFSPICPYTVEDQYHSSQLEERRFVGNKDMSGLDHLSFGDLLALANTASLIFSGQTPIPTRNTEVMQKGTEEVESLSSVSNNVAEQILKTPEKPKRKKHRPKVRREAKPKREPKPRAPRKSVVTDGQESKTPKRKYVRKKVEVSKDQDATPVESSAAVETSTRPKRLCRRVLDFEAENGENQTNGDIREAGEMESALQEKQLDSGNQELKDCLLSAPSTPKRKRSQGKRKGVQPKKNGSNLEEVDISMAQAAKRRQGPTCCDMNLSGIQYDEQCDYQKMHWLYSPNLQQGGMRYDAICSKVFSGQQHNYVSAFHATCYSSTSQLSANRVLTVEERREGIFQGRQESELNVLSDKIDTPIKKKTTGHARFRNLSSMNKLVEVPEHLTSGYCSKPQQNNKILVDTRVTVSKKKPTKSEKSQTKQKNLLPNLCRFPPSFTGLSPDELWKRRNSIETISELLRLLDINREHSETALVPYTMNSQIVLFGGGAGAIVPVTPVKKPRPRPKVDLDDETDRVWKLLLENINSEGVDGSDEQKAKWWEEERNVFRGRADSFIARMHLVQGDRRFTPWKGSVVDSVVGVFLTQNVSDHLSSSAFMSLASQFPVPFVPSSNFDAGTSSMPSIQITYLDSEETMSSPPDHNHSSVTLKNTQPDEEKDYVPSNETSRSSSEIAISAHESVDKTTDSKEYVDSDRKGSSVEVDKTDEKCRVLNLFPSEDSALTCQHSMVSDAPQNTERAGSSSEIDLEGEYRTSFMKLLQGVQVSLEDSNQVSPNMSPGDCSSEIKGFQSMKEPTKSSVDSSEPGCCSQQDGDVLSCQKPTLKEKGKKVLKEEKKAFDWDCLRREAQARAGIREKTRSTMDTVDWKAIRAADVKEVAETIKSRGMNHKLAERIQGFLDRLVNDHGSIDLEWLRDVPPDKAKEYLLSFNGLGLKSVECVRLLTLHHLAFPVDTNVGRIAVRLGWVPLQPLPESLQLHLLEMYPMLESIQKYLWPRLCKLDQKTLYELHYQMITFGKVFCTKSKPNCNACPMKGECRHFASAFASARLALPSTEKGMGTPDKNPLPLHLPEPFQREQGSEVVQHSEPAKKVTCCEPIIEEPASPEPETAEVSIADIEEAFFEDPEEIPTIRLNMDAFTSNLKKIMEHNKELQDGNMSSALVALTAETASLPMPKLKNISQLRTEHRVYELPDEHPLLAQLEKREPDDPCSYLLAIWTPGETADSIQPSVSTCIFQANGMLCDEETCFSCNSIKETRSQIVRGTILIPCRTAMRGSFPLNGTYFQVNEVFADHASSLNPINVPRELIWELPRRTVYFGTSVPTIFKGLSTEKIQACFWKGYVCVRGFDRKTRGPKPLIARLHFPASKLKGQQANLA

T2: ROS1 (full length) fused with split luciferase (Arabidopsis thaliana), Q9SJQ6
T2 chain: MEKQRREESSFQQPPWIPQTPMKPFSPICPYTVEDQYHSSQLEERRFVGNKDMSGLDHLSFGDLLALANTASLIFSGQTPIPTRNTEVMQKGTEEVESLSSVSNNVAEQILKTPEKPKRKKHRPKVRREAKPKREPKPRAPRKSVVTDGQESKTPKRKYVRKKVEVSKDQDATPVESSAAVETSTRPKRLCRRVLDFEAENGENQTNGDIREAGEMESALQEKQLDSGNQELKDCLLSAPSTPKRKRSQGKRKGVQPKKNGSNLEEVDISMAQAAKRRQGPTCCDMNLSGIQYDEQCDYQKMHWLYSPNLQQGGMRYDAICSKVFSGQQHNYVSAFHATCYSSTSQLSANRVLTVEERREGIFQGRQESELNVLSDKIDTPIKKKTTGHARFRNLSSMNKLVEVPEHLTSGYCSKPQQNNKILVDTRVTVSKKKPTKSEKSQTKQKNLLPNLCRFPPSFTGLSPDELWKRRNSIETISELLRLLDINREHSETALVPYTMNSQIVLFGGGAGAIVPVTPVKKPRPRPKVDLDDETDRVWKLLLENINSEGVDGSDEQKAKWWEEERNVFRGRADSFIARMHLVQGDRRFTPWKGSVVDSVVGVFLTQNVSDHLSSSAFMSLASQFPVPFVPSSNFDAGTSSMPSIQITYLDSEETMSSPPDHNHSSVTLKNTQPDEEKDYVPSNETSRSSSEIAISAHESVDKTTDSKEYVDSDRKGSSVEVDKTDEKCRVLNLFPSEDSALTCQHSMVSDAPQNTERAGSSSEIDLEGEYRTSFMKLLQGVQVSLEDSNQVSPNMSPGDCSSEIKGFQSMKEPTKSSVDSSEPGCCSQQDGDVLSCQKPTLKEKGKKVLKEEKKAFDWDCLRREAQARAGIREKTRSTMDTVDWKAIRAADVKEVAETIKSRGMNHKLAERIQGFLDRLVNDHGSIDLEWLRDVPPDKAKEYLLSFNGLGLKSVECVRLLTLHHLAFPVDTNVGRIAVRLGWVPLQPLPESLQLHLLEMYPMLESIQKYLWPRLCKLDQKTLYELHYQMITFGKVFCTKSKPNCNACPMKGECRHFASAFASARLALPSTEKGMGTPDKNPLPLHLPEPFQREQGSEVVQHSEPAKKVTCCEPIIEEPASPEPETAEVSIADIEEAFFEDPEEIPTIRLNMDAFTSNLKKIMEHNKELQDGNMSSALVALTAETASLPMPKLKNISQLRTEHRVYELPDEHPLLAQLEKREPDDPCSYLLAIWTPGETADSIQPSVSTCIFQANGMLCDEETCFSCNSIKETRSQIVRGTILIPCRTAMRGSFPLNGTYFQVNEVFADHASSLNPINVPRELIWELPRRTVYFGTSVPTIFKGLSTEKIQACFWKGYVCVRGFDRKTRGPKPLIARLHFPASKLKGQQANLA


How the values were obtained:
[1] = molecular target: T1, ROS1 in the BD vector (Arabidopsis …); assay: two-hybrid; yeast two-hybrid, pDEST 22 (AD) and pDEST 32 (BD); growth on SD-L/T/H media; settings: remark: other sources report otherwise
[2] = molecular target: T2, ROS1 (full length) fused with split …; assay: split reporter; split luciferase, constructs co-transfected into Arabidopsis protoplasts, overnight incubation; empty vectors as negative control; CCD camera; settings: remark: other sources report otherwise

binding [1] | binding [2] | Binder
binds |  | AE7 in the AD vector, Q9C9G6 1-157 (protein) MVSGLINENPIIYPKKERRLRTDTSITDELTPEPIDQLEIFDHIRDIKDPEHPNTLEDLRVVTEDSVEVDDENSYVRVTFTPTVEHCSMATVIGLCVRVKLLRSLPSRYKIDIRVAPGSHATEDALNKQLNDKERVAAALENPNLVEMVDECLPSEE
 | binds | AE7 fused with split luciferase, Q9C9G6 1-157 (protein) MVSGLINENPIIYPKKERRLRTDTSITDELTPEPIDQLEIFDHIRDIKDPEHPNTLEDLRVVTEDSVEVDDENSYVRVTFTPTVEHCSMATVIGLCVRVKLLRSLPSRYKIDIRVAPGSHATEDALNKQLNDKERVAAALENPNLVEMVDECLPSEE

— article PMC4619598
